PubChem BioAssay AID743454 | Peter MacCallum Cancer Centre | 2014
In all, the deposit lists about 18,000 reagents; this is a random part of them. 450 of them (2.5%) were called active. 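Single biological run; no consistent viability z cut-off exists, so the class columns, not z-scores, define the calls.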 Entries without a mark were called inactive. No sequences are given here.

Screen: 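Search for knock-downs that restore vorinostat killing in resistant colon cancer cells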 (primary screen)
Cells: human HCT116-VR colon cancer cells, selected for vorinostat resistance
Reagent: siRNA pool against human genes, 40 nM siRNA pool
Time to read-out: vorinostat for 24 h, read-out about 72 h after transfection
Conditions: vorinostat at 2.5 µM final
Read-out: 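Cell viability by CellTiter-Fluor and caspase 3/7 activity by luminescence, each scaled to mock wells per plate, duplicates averaged, then robust z-scored over all plates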
Scale: viability robust z-score: higher = more viable cells than screen typical; caspase robust z-score: higher = more caspase 3/7 activity than screen typical
Rule for the call: 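a knock-down is a hit when classed RV1 or RV2 for lowered viability, or CA1 or CA2 for caspase activation; those lethal without drug were dropped; hits were retested singly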

With knock-down of KIR3DL2 [SID152152945] the results were viability hit class no change; caspase hit class no change; viability robust z-score 1.25; caspase robust z-score -0.14.
Against FBP2 [SID134314769], the values are viability hit class no change; caspase hit class no change; viability robust z-score 0.17; caspase robust z-score -0.34.
Knock-down of ABRAXAS2 [SID152149577] came out at: viability hit class no change; caspase hit class no change; viability robust z-score 1.36; caspase robust z-score 0.15.
Against GPRASP2 [SID152155733], the entry reads viability hit class no change; caspase hit class no change; viability robust z-score -0.33; caspase robust z-score 0.36.
For PRMT6 [SID134312735] the deposit lists viability hit class no change; caspase hit class no change; viability robust z-score 0.74; caspase robust z-score 1.26.
For RAB19 [SID152150455], the entry reads viability hit class no change; caspase hit class no change; viability robust z-score 0.63; caspase robust z-score 2.62.
DKKL1 [SID135624003] scored viability hit class no change; caspase hit class no change; viability robust z-score 0.36; caspase robust z-score 0.
Silencing of CSHL1 [SID135622023] gave: viability hit class no change; caspase hit class no change; viability robust z-score 0.42; caspase robust z-score 0.4.

A run of entries of the results above, for reference:
RAB19 [SID152150455] | viability hit class: no change; caspase hit class: no change; viability robust z-score: 0.63; caspase robust z-score: 2.62
DKKL1 [SID135624003] | viability hit class: no change; caspase hit class: no change; viability robust z-score: 0.36; caspase robust z-score: 0

Next reagents follow.
For ENDOG [SID152150503], the values are viability hit class no change; caspase hit class no change; viability robust z-score -0.04; caspase robust z-score 0.58.
Against WDR41 [SID134324111], the entry reads viability hit class no change; caspase hit class no change; viability robust z-score -0.08; caspase robust z-score -0.56.
SERP2 [SID135624893] showed viability hit class no change; caspase hit class no change; viability robust z-score 0.04; caspase robust z-score -1.46.
Depletion of PMVK [SID135621255] resulted in: viability hit class no change; caspase hit class no change; viability robust z-score -1.75; caspase robust z-score 1.41.
